Data: PMC6908259
These are yes or no findings as the source states them, for the method shown. Binding seen in cells or lysates may run through a third protein. Some results given as binding are weak or reduced against the parent protein; the word gives no strength. Where a sequence is shown, tags or fusion partners need not be part of it.

T1: GFP-tagged AC40 subunit of RNA polymerase III (S. cerevisiae) (UniProt P07703)
T1 sequence: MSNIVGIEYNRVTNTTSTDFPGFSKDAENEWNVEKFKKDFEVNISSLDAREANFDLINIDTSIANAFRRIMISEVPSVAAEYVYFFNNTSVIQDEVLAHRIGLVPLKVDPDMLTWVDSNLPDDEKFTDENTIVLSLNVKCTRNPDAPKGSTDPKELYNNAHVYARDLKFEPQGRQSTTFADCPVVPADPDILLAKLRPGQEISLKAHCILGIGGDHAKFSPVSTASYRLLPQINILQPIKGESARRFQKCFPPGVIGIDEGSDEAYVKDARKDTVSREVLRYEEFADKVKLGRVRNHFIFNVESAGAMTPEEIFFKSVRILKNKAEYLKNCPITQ


Target: T1, GFP-tagged AC40 subunit of RNA polymerase III (S. cerevisiae)
Assay: co-IP; extracts of yeast expressing AC40-GFP and C160-HA incubated with magnetic beads coated with anti-GFP antibody, extensive washes, Western blot (GFP, HA, C82, C53); cells untreated, or treated with EtOH or 100 ug/ml MPA for 2 h

| binding | Binder |
| --- | --- |
| binds | C82 subunit of RNA polymerase III (protein, UniProt P32349 1-654) MDELLGEALSAENQTGESTVESEKLVTPEDVMTISSLEQRTLNPDLFLYKELVKAHLGERAASVIGMLVALGRLSVRELVEKIDGMDVDSVKTTLVSLTQLRCVKYLQETAISGKKTTYYYYNEEGIHILLYSGLIIDEIITQMRVNDEEEHKQLVAEIVQNVISLGSLTVEDYLSSVTSDSMKYTISSLFVQLCEMGYLIQISKLHYTPIEDLWQFLYEKHYKNIPRNSPLSDLKKRSQAKMNAKTDFAKIINKPNELSQILTVDPKTSLRIVKPTVSLTINLDRFMKGRRSKQLINLAKTRVGSVTAQVYKIALRLTEQKSPKIRDPLTQTGLLQDLEEAKSFQDEAELVEEKTPGLTFNAIDLARHLPAELDLRGSLLSRKPSDNKKRSGSNAAASLPSKKLKTEDGFVIPALPAAVSKSLQESGDTQEEDEEEEDLDADTEDPHSASLINSHLKILASSNFPFLNETKPGVYYVPYSKLMPVLKSSVYEYVIASTLGPSAMRLSRCIRDNKLVSEKIINSTALMKEKDIRSTLASLIRYNSVEIQEVPRTADRSASRAVFLFRCKETHSYNFMRQNLEWNMANLLFKKEKLKQENSTLLKKANRDDVKGRENELLLPSELNQLKMVNERELNVFARLSRLLSLWEVFQMA |
| binds | C53 subunit of RNA polymerase III (protein, UniProt P25441 1-422) MSSNKGNGRLPSLKDSSSNGGGSAKPSLKFKPKAVARKSKEEREAAASKVKLEEESKRGNDKKHFNNKNKRVTGAGGQQRRMAKYLNNTHVISSGPLAAGNFVSEKGDLRRGFIKSEGSGSSLVQKGLETIDNGAESSENEAEDDDNEGVASKSKKKFNMGKEFEARNLIEDEDDGESEKSSDVDMDDEEWRSKRIEQLFPVRPVRVRHEDVETVKREIQEALSEKPTREPTPSVKTEPVGTGLQSYLEERERQVNEKLADLGLEKEFQSVDGKEAAAELELLNADHQHILRKLKKMNNKPERFMVFQLPTRLPAFERPAVKEEKEDMETQASDPSKKKKNIKKKDTKDALSTRELAGKVGSIRVHKSGKLSVKIGNVVMDIGKGAETTFLQDVIALSIADDASSAELLGRVDGKIVVTPQI |

| Binder | binding |
| --- | --- |
| HA-tagged C160 subunit of RNA polymerase III (protein, UniProt P04051 1-1460) MKEVVVSETPKRIKGLEFSALSAADIVAQSEVEVSTRDLFDLEKDRAPKANGALDPKMGVSSSSLECATCHGNLASCHGHFGHLKLALPVFHIGYFKATIQILQGICKNCSAILLSETDKRQFLHELRRPGVDNLRRMGILKKILDQCKKQRRCLHCGALNGVVKKAAAGAGSAALKIIHDTFRWVGKKSAPEKDIWVGEWKEVLAHNPELERYVKRCMDDLNPLKTLNLFKQIKSADCELLGIDATVPSGRPETYIWRYLPAPPVCIRPSVMMQDSPASNEDDLTVKLTEIVWTSSLIKAGLDKGISINNMMEHWDYLQLTVAMYINSDSVNPAMLPGSSNGGGKVKPIRGFCQRLKGKQGRFRGNLSGKRVDFSGRTVISPDPNLSIDEVAVPDRVAKVLTYPEKVTRYNRHKLQELIVNGPNVHPGANYLLKRNEDARRNLRYGDRMKLAKNLQIGDVVERHLEDGDVVLFNRQPSLHRLSILSHYAKIRPWRTFRLNECVCTPYNADFDGDEMNLHVPQTEEARAEAINLMGVKNNLLTPKSGEPIIAATQDFITGSYLISHKDSFYDRATLTQLLSMMSDGIEHFDIPPPAIMKPYYLWTGKQVFSLLIKPNHNSPVVINLDAKNKVFVPPKSKSLPNEMSQNDGFVIIRGSQILSGVMDKSVLGDGKKHSVFYTILRDYGPQEAANAMNRMAKLCARFLGNRGFSIGINDVTPADDLKQKKEELVEIAYHKCDELITLFNKGELETQPGCNEEQTLEAKIGGLLSKVREEVGDVCINELDNWNAPLIMATCGSKGSTLNVSQMVAVVGQQIISGNRVPDGFQDRSLPHFPKNSKTPQSKGFVRNSFFSGLSPPEFLFHAISGREGLVDTAVKTAETGYMSRRLMKSLEDLSCQYDNTVRTSANGIVQFTYGGDGLDPLEMEGNAQPVNFNRSWDHAYNITFNNQDKGLLPYAIMETANEILGPLEERLVRYDNSGCLVKREDLNKAEYVDQYDAERDFYHSLREYINGKATALANLRKSRGMLGLLEPPAKELQGIDPDETVPDNVKTSVSQLYRISEKSVRKFLEIALFKYRKARLEPGTAIGAIGAQSIGEPGTQMTLKTFHFAGVASMNVTLGVPRIKEIINASKVISTPIINAVLVNDNDERAARVVKGRVEKTLLSDVAFYVQDVYKDNLSFIQVRIDLGTIDKLQLELTIEDIAVAITRASKLKIQASDVNIIGKDRIAINVFPEGYKAKSISTSAKEPSENDVFYRMQQLRRALPDVVVKGLPDISRAVINIRDDGKRELLVEGYGLRDVMCTDGVIGSRTTTNHVLEVFSVLGIEAARYSIIREINYTMSNHGMSVDPRHIQLLGDVMTYKGEVLGITRFGLSKMRDSVLQLASFEKTTDHLFDAAFYMKKDAVEGVSECIILGQTMSIGTGSFKVVKGTNISEKDLVPKRCLFESLSNEAALKAN | binds |
